Experimental data taken from doi:10.1101/2020.12.22.423978.
Results are given in words; binding and its absence hold for the method and conditions named. In cells and extracts the contact can be indirect. Here binding means that the protein was enriched with, or labelled near, the bait; the list need not be complete. Values belong to the binder of their own block, whether it stands above or below them.

By UniProt entry, the sequences of proteins in these tests, tags left out.
UniProt E9PY46: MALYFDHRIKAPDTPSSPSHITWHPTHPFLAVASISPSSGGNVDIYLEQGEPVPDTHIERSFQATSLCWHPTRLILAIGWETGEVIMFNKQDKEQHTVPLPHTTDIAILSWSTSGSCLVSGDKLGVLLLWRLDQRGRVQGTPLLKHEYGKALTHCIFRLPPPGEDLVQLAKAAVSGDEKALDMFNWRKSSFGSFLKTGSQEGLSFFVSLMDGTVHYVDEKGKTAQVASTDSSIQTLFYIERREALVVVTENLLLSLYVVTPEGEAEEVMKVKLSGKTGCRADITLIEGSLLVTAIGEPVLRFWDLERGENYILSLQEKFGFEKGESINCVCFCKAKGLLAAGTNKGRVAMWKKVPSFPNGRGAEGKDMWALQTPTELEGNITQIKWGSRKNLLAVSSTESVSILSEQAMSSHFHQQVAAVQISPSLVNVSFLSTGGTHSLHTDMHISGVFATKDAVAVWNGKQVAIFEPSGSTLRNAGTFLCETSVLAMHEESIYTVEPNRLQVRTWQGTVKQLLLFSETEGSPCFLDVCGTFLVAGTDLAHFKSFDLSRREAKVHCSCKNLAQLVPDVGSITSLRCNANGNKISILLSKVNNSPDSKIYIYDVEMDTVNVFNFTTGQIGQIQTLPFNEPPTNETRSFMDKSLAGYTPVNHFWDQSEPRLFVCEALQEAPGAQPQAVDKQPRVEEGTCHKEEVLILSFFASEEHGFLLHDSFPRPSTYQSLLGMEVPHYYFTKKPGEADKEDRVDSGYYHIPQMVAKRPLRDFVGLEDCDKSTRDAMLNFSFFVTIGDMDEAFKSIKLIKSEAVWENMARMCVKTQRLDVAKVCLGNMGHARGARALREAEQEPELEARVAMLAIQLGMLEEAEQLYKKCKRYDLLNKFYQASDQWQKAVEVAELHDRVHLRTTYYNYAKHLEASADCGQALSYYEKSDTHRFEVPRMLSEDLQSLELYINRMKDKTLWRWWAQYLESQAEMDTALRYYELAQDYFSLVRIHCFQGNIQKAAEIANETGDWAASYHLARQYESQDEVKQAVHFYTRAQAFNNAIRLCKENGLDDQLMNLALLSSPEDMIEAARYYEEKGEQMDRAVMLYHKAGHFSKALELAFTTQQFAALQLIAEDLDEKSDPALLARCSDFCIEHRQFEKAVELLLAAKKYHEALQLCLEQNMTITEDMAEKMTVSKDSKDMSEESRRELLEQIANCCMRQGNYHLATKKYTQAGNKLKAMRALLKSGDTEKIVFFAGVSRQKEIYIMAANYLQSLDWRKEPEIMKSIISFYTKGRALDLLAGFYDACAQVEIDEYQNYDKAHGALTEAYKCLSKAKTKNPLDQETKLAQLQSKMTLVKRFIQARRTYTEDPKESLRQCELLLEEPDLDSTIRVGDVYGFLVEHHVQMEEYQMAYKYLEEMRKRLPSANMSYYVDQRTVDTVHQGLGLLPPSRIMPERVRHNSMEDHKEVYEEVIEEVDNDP

Key:
[1] = target: IFT140 (mouse (endogenous in E11.5 embryos)) (UniProt E9PY46); assay: affinity purification with mass spectrometry
[2] = target: T1, IFT88 (mouse (endogenous in E11.5 embryos)) (UniProt Q61371); assay: affinity purification with mass spectrometry
T1 sequence: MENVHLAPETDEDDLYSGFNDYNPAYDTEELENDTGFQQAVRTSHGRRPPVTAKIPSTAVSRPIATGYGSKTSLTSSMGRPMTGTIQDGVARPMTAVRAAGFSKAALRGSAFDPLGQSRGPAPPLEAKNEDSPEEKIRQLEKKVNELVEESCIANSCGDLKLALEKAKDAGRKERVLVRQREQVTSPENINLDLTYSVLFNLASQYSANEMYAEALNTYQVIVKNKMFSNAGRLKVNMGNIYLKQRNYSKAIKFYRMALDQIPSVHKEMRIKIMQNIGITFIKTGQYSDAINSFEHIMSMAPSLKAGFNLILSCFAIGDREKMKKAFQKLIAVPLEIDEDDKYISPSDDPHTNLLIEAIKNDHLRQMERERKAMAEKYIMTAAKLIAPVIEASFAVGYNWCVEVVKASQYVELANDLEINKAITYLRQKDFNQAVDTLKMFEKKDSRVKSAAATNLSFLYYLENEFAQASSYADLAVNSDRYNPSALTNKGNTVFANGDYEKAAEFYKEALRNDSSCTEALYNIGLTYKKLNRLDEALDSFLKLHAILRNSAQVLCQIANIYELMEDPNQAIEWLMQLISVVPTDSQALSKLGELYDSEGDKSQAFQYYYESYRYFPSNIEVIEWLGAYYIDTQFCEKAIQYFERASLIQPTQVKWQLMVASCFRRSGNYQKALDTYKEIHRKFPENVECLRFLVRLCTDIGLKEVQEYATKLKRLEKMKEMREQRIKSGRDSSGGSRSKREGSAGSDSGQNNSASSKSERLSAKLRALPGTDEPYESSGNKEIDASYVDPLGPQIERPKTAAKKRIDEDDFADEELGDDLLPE

binding [1]: binds
B2: WDR35/IFT121 (protein, UniProt Q8BND3 1-1181)
chain: MFFYLSKKIAVPNNVKLKCISWNKDQGFIACGGEDGLLKVLRLETQTDDSKLRGLAAPSNLSMNQNLEGHSGAVQVVTWNEQYQKLTTSDQNGLIIVWMLYKGSWYEEMINNRNKSVVRSMSWNADGQKICIVYEDGAVIVGSVDGNRIWGKDLKGIQLCHVTWSADSKILLFGMANGEIHIYDNQGNFIMKMKLNCLVNVTGAISIAGIHWYHGTEGYVEPDCPCLAICFDNGRCQIMRHENDQNPVLIDTGMYVVGIQWNHIGSVLAVAGSQKVVTQDKDINIVQFYTPFGEHLGTLKVPGKQMCSLSWEGGGLKIALAVDSFIYFANIRPDYKWGYCSNTVVYAYTRPDRPEYCVVFWDTKNSEKYVKYVKSLISITTCGDFCILATKADENHPQEENEMETFGATFVLVLCNSIGTPLDPKYIDLVPLFVAMTKTHVIAASKEAFYTWQYRVAKKLTALEINQITRSRKEGRERIYHVDDVPSGSVDGVFDYSKAIQGTRDPICAITASDKTLIVGRESGVIQRYSFPNVALIQKYSLDCRACQLSLNCNSSRLAIIDIAGVLTFFDLDTRVTDSTGQQVVGELLKLERKDVWDMKWAKDNPDLFAMMEKTRMYVFRNLDPEEPIQTSGYICNFEDLEIKSVLLDEILKDPEHPSKDYIMNFEIRSLRDSRALIEKVGIEDASQFIEDNPHPRLWRLLAEAALQKLDLYTAQQAFVRCKDYQGIKFVKLLGNLQSESMKQAEVIAYFGRFEDAERMYQDMDRRDLAIGLRMKLGDWFRVLQLLKTGSGDADDSLLEQANNAIGEYFADRQKWQNAVQYYVKGRNQERLAECYYMLEDYEGLETLANSLPENHKLLPEIAQMFVRVGMCEQAVSAFLKCNQPKAAVDTCVHLNQWNKAVELAKSHSMKEIGSLLARYASHLLEKNKTLDAIELYRKASYFFDAAKLMYKIADEEAKKRTKPLRVKKLYVLSALLIEQYHEQMKNAQRGKVKGKNSEATSALAGLLEEEVLSTTSRFTDNAWRGAEAYHFFILAQRQLYEGYVDTALKTALHLRDYEDIIPSVEIYSLLALCACASRAFGTCSKAFIKLESLETLSAEQKQQYEDLALEIFTKHTPKDNRKSELNSLLEGGEGKLPTCIATGSPIIEYQFWVCKVCKHYVLAQEISNYNFCPLCHSSVE

binding [1]: binds
B4: IFT144/WDR19 (protein, UniProt Q3UGF1 1-1341)
chain: MKRVFSLLEKSWLGAPIQFAWQKSSGNYLAVTGADYIVKIFDRHGQKRSEISLPGNCVTMDWDKDGDILAVIAEKSSCIYLWDANTNKTSQLDNGMRDQMSFLLWSKIGSFLAVGTIKGNLLIYNHQTSRKIPVLGKHTKKITCGCWNSENLLALGGEDKMITVSNQEGDTIRQTPVKSEPSDIKFSMSKTDERISSAENTISAVVGKKMLFLFHLNEPDNPVDLEFQQAYGNIVCYSWYGDGYIMIGFSRGTFLAISTHFPEVGQEIFKARDHKDNLTSVALSQTLNKAATCGDNCIKIHDLTELRDMYAIINLDDENKGLGTLSWTDDGQLLALSTQRGSLHVFLTKLPILGDACHTRIAYLTSLLEVTVANLIEGEPPITVSVDVEPTFVAVGLYHLAVGMNNRAWFYVLGENVVKKLKDVEYLGTVASICLHSDYAAALFEGKIQLHLIENEMLDAQEERETRLFPAVDDKCRILCHALTSDFLIYGTDTGIIHYFFIEDWQFVNDYRHPVGVKKLFPDPNGTRLVFIDEKSDGFVYCPVNDATYEIPDFSPTIKGVLWENWPMDKGVFIAYDDDKVYTYAFHKDTIQGSKVILAGSTKLPFSHKPLLLYNGELTCQTQSGKINSIYLSTHSFLGSMKDTEPTDLRQMLTQTLLLKRFSDAWDICKMLNDRTSWSELAKACLHHMEVEFAIRVSRTMGDVGTVMSLEQIKGIEDYNLLAGHLAMFTNDFNLAQDLYLASNCPVAALEMRRDLQHWDSALQLAKRLAPDQIPFISKEYAIQLEFTGDYVNALAHYEKGITGDNKEHDEVCLAGVAQMSIRMGDIRRGANQALKHPSRVLKRDCGAILENMKQFSEAAQLYEKGQYYDRAASVYIRCKNWAKVGELLPHVSSPKIHLQYAKAKEADGRYKEAVVAYENAKQWNSVIRIYLDHLNNPEKAVSIVRETQSLDGAKMVARFFLQLGDYGSAIQFLVLSKCNNEAFTLAQQHNKMEIYADIIGAEDTTNEDYQSIALYFEGEKRHFQAGKFFLLCGQYSRALKHFLKCPSSEDNVAIEMAIETVGQAKDELLTNQLIDHLMGESDGMPKDAKYLFRLYMALKQYREAARTAIIIAREEQSAGNYRNAHDVLFSMYAELKAQKIKIPSEMATNLMILHSYILVKIHVKSGDHMKGARMLIRVANNISKFPSHIVPILTSTVIECHRAGLKNSAFSFAAMLMRPEYRNKIDAKYKKKIEAMVRRPDTSETEEATTPCPFCQFLLPECELLCPGCKNNIPYCIATGRHMLKDDWTMCPHCGFPALYSEFKILLNSESTCPMCSERLNSSQLKKITDCSQYLRTEME

The next lines start with the binder.

B1: IFT43 (protein, UniProt Q9DA69 1-206)
chain: MDDLLDLGEERRRSSATSGAKMGRRAHQESTQAENYLNSKNSSLTQTGEAPPPKPPRRQGGWADDSMKMAKLGKKVSEEMEDHRLRQQNLMGSDDDDIPVIPDLEDVQEEDFVLQVASPPSIQVNRVMTYRDLDNDLMKYSAFQTLDGEIDLKLLTKVLAPEHEVREDDVGWDWDHLYTEVSSELLTEWDLLRAEKEDPVGPSRYI
binding [1]: binds

B3: IFT139/TTC21B/THM1 (protein, UniProt Q0HA38 1-1315)
chain: MDSQGLKTLINYYCQERYYHHVLLVASEGMKKYSSDPVFRFYHAYGTLMEGKAQEALREFEAIKNKQDVSLCSLMALMYVHKMSPNPDREAILELDTKMKEQRKEAGRKALYHAGLFLWHIGRHDKAREYIDRMSKMPHDSNEGPILKAWLDITRGKEPYAKKALRYFEEGLQDGNDIFALLGKVLCLEIRQNYSGALETVSQIIVNFPSFLPAFEKKMKLQLALQDWDQTVETAQRLLLQDNHNVEALRMLALYYLCREGDVEKAATKLENLGNALDVMEPQNAQLFYKITLAFSRTCGRNQLILQKVQSFLEKAFSLTPQQAEIATELGYQMILQGKVKEAWKWYRTAMTLNESNISAVTGLIRCQLIEGQLQDADQQLEFFSEFQQSMGKSAELMYLHAVLATKKNNRQDEVINLLNDVVNTHFSHLEDLPLGIQYFEKLNPDFLLEVVTEYLNLCPIQPAGPGQPLSPVLRRCSSVLETIIRSVPGLPQAVFLMAKVKYLSGDTEAAYNNLQHCLEHSPSYAEAHLLMAQVYLSQDKVKLCSQSLELCLSYNFNVREYPLYHLIKAQSQKKMGEVAEAIKTLHMAMNLPGMRRSRASSKSKHRTEVDASHRLSIFLELVEVHRLNGEQHEAAKVLQDAIHEFSGTCEELRVTIANADLALAQGDTDRALSMLRNVTTEQPYFIEAKEKMADIYLKHRKEKMLYITCYREIAERMPSPRSFLLLGDAYMNIQEPEEAIVAYEQALNQNPKDGTLARKIGKALVKTHNYSKAITYYEAALKSGQQNCLCYDLAELLLRLKLYEKAEKVLQHSLAHEPVSELSALMVDGRSQVLLAKVYSKMERPSDAIAALQQARELQARILKRVQMEQPDAVPSQKHFAAEICAEIAKHSAAQRDYEKAITFYREALVHCETDSKIMLELAQLYLAQEDLDASLRHCALLLQRDQDNEPATMLMADLMFRKQDYEQAVYHLQQLLDRKPDNFMTLSRLIDLLRRCGKLEDVPRFFLMAEKHNSRTKLEPGFQYCKGLHFWYTGEPNDALRHFNKARKDSDWGQNALYNMIEICLNPDNETIGGEVFENLNGDLGTSPEKQESVQLAVRTAEKLLKELKPQTVQGRLQLRIMENCCLMATKQKSSVEQALNTFTEIAASEKDHIPALLGMATAYMILKQTPKARNQLKRIAKMPWNPIEAEDLEKSWLLLADIYIQSAKYDMAEELLKRCLCHNRSCCKAYEYMGYIMEKEQAYTDAAFNYEMAWKHSNQTNPAVGYKLAFNYLKAKRYVDAIDVCHQVLEAHPTYPKIRKDILDKARASLRP
binding [1]: binds

B5: IFT22/RABL5 (protein, UniProt Q9DAI2 1-185)
chain: MLKAKILFVGPCESGKTVLANFLTESSDITEYNPTQGVRILEFENPHVTSNNKGTGCEFELWDCGGDSKFESCWPALMKDAHGVVIVFNADIPSHLKEIEMWYSCFVQQQFLQDSHCMLVAHHKPGSGGERGSLALSPPLNKLKLVHSNLEEDPEEVRVEFIKYLKSIINSMSESRDREEMLIIT
binding [2]: binds
